Data source: PubChem BioAssay AID1159600 (NIAID, 2016)
Purpose: 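Effect of silencing core TLR signalling genes on R848-induced TNF reporter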 (primary screen). Cell system: human THP-1 TNF reporter clone B5, made macrophage-like with PMA. Reagents: single siRNA against human genes. Duration: 4 h ligand stimulation, assayed 48 to 72 h after siRNA transfection. Treatment: R848 (TLR7/8 agonist) for 4 hours before lysis; dose not given. Read-out: 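Robust z-score of firefly over renilla TNF promoter signal after 4 h R848, plate median/MAD normalised, relative to negative controls, averaged across replicates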. Scale: TNF reporter z-score: higher = stronger TNF promoter reporter signal after R848. Call rule: 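Active where mean z-score is about 1.5 or more from zero in either direction; depositor grades use cut-offs of 1, 1.5, 2 and 2.5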. Meaning of the calls: active = strong change in TNF reporter (up or down); inactive = little change.
This is one part, drawn at random, of 756 reagents tested. Over the whole deposit, 134 (18%) got an active call. 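Active includes both reduced and increased reporter signal, though most active siRNAs reduce it; R848 dose unknown.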 A number with no mark means an inactive call. Reagents against one gene are numbered here. Not stated in the record: the amount of reagent.

no.	gene symbol	reagent	TNF reporter z-score
1	IRAK2 (interleukin 1 receptor associated kinase 2)	1	-0.807
2	IRAK2 (interleukin 1 receptor associated kinase 2)	2	1.82 (active)
3	IRAK2 (interleukin 1 receptor associated kinase 2)	3	-0.491
4	IRAK2 (interleukin 1 receptor associated kinase 2)	4	-0.48
5	IRAK2 (interleukin 1 receptor associated kinase 2)	5	0.442
6	IRAK2 (interleukin 1 receptor associated kinase 2)	6	0.85
7	CCL3 (C-C motif chemokine ligand 3)	1	0.144
8	CCL3 (C-C motif chemokine ligand 3)	2	-0.655
9	CCL3 (C-C motif chemokine ligand 3)	3	0.0883
10	CCL3 (C-C motif chemokine ligand 3)	4	-0.677
11	CCL3 (C-C motif chemokine ligand 3)	5	0.524
12	CCL3 (C-C motif chemokine ligand 3)	6	-0.622
13	CYLD (CYLD lysine 63 deubiquitinase)	1	-0.531
14	CYLD (CYLD lysine 63 deubiquitinase)	2	-1.47
15	CYLD (CYLD lysine 63 deubiquitinase)	3	1.04
16	CYLD (CYLD lysine 63 deubiquitinase)	4	-0.793
17	CYLD (CYLD lysine 63 deubiquitinase)	5	-0.991
18	CYLD (CYLD lysine 63 deubiquitinase)	6	-0.455
19	TLR3 (toll like receptor 3)	1	0.891
20	TLR3 (toll like receptor 3)	2	-0.203
21	TLR3 (toll like receptor 3)	3	-0.302
22	TLR3 (toll like receptor 3)	4	-0.853
23	TLR3 (toll like receptor 3)	5	0.619
24	TLR3 (toll like receptor 3)	6	0.173
25	IRF9 (interferon regulatory factor 9)	1	-1.09
26	IRF9 (interferon regulatory factor 9)	2	-1.12
27	IRF9 (interferon regulatory factor 9)	3	0.0217
28	IRF9 (interferon regulatory factor 9)	4	-2.02 (active)
29	IRF9 (interferon regulatory factor 9)	5	-1.36
30	IRF9 (interferon regulatory factor 9)	6	-1.33
31	IL12B (interleukin 12B)	1	-0.456
32	IL12B (interleukin 12B)	2	0.164
33	IL12B (interleukin 12B)	3	-0.207
34	IL12B (interleukin 12B)	4	-0.948
35	IL12B (interleukin 12B)	5	-1.25
36	IL12B (interleukin 12B)	6	-1.29
37	NFKBIE (NFKB inhibitor epsilon)	1	-1.44
38	NFKBIE (NFKB inhibitor epsilon)	2	-1.85 (active)
39	NFKBIE (NFKB inhibitor epsilon)	3	-0.575
40	NFKBIE (NFKB inhibitor epsilon)	4	-0.821
41	NFKBIE (NFKB inhibitor epsilon)	5	-1.83 (active)
42	NFKBIE (NFKB inhibitor epsilon)	6	-1.98 (active)
43	LY86 (lymphocyte antigen 86)	1	0.795
44	LY86 (lymphocyte antigen 86)	2	-1.43
45	LY86 (lymphocyte antigen 86)	3	-0.595
46	LY86 (lymphocyte antigen 86)	4	-1.98 (active)
47	LY86 (lymphocyte antigen 86)	5	-1.65 (active)
48	LY86 (lymphocyte antigen 86)	6	-0.831
49	EGR2 (early growth response 2)	1	-1.49
50	EGR2 (early growth response 2)	2	-0.928
51	EGR2 (early growth response 2)	3	-0.816
52	EGR2 (early growth response 2)	4	-1.15
53	EGR2 (early growth response 2)	5	0.446
54	EGR2 (early growth response 2)	6	-0.633
55	IL1B (interleukin 1 beta)	1	0.129
56	IL1B (interleukin 1 beta)	2	0.536
57	IL1B (interleukin 1 beta)	3	-0.948
58	IL1B (interleukin 1 beta)	4	-0.278
59	IL1B (interleukin 1 beta)	5	0.474
60	IL1B (interleukin 1 beta)	6	-0.434
61	TLR1 (toll like receptor 1)	1	2.21 (active)
62	TLR1 (toll like receptor 1)	2	-0.279
63	TLR1 (toll like receptor 1)	3	-2.95 (active)
64	TLR1 (toll like receptor 1)	4	1.47
65	TLR1 (toll like receptor 1)	5	-0.396
66	TLR1 (toll like receptor 1)	6	-0.435

A few values from the entries so far.
Value for IL1B (interleukin 1 beta) #1 in “TNF reporter z-score”: 0.129
Value of TLR1 (toll like receptor 1) #4 under “TNF reporter z-score”: 1.47
For “TNF reporter z-score”, TLR3 (toll like receptor 3) #4 shows -0.853
Under “TNF reporter z-score”, IL12B (interleukin 12B) #3 is entered as -0.207
Under “TNF reporter z-score”, IRAK2 (interleukin 1 receptor associated kinase 2) #6 shows 0.85
TLR3 (toll like receptor 3) #1, TNF reporter z-score = 0.891

Further results follow:
no.	gene symbol	reagent	TNF reporter z-score
67	MAP3K1 (mitogen-activated protein kinase kinase kinase 1)	1	-1.39
68	MAP3K1 (mitogen-activated protein kinase kinase kinase 1)	2	-0.404
69	MAP3K1 (mitogen-activated protein kinase kinase kinase 1)	3	-0.924
70	MAP3K1 (mitogen-activated protein kinase kinase kinase 1)	4	-1.72 (active)
71	MAP3K1 (mitogen-activated protein kinase kinase kinase 1)	5	-0.942
72	MAP3K1 (mitogen-activated protein kinase kinase kinase 1)	6	-0.0248
73	MAP2K2 (mitogen-activated protein kinase kinase 2)	1	-0.504
74	MAP2K2 (mitogen-activated protein kinase kinase 2)	2	1.07
75	MAP2K2 (mitogen-activated protein kinase kinase 2)	3	-1.44
76	MAP2K2 (mitogen-activated protein kinase kinase 2)	4	0.895
77	MAP2K2 (mitogen-activated protein kinase kinase 2)	5	0.677
78	MAP2K2 (mitogen-activated protein kinase kinase 2)	6	0.141
79	TLR7 (toll like receptor 7)	1	-0.785
80	TLR7 (toll like receptor 7)	2	1.61 (active)
81	TLR7 (toll like receptor 7)	3	-0.311
82	TLR7 (toll like receptor 7)	4	-0.234
83	TLR7 (toll like receptor 7)	5	0.284
84	TLR7 (toll like receptor 7)	6	-0.168
85	MAP2K7 (mitogen-activated protein kinase kinase 7)	1	-0.432
86	MAP2K7 (mitogen-activated protein kinase kinase 7)	2	-1.27
87	MAP2K7 (mitogen-activated protein kinase kinase 7)	3	-0.711
88	MAP2K7 (mitogen-activated protein kinase kinase 7)	4	1.23
89	MAP2K7 (mitogen-activated protein kinase kinase 7)	5	-3.11 (active)
90	MAP2K7 (mitogen-activated protein kinase kinase 7)	6	-0.852
91	IRAK3 (interleukin 1 receptor associated kinase 3)	1	1.47
92	IRAK3 (interleukin 1 receptor associated kinase 3)	2	0.298
93	IRAK3 (interleukin 1 receptor associated kinase 3)	3	0.0575
94	IRAK3 (interleukin 1 receptor associated kinase 3)	4	-0.47
95	IRAK3 (interleukin 1 receptor associated kinase 3)	5	-0.232
96	IRAK3 (interleukin 1 receptor associated kinase 3)	6	-0.423
97	LY96 (lymphocyte antigen 96)	1	-0.541
98	LY96 (lymphocyte antigen 96)	2	-1.5 (active)
99	LY96 (lymphocyte antigen 96)	3	1.46
100	LY96 (lymphocyte antigen 96)	4	-0.589
101	LY96 (lymphocyte antigen 96)	5	0.846
102	LY96 (lymphocyte antigen 96)	6	0.346
103	MAP2K3 (mitogen-activated protein kinase kinase 3)	1	-0.533
104	MAP2K3 (mitogen-activated protein kinase kinase 3)	2	-0.276
105	MAP2K3 (mitogen-activated protein kinase kinase 3)	3	-0.51
106	MAP2K3 (mitogen-activated protein kinase kinase 3)	4	-1.7 (active)
107	MAP2K3 (mitogen-activated protein kinase kinase 3)	5	0.0946
108	MAP2K3 (mitogen-activated protein kinase kinase 3)	6	-3.35 (active)
109	LBP (lipopolysaccharide binding protein)	1	-0.529
110	LBP (lipopolysaccharide binding protein)	2	-0.688
111	LBP (lipopolysaccharide binding protein)	3	0.23
112	LBP (lipopolysaccharide binding protein)	4	-0.562
113	LBP (lipopolysaccharide binding protein)	5	0.986
114	LBP (lipopolysaccharide binding protein)	6	-1.51 (active)
115	REL (REL proto-oncogene, NF-kB subunit)	1	1.44
116	REL (REL proto-oncogene, NF-kB subunit)	2	-0.952
117	REL (REL proto-oncogene, NF-kB subunit)	3	-0.76
118	REL (REL proto-oncogene, NF-kB subunit)	4	-1.17
119	REL (REL proto-oncogene, NF-kB subunit)	5	-0.46
120	REL (REL proto-oncogene, NF-kB subunit)	6	-0.449
121	PIK3CA	1	0.164
122	PIK3CA	2	0.645
123	PIK3CA	3	-0.908
124	PIK3CA	4	-0.232
125	PIK3CA	5	-0.371
126	PIK3CA	6	-0.411
127	MAPK8 (mitogen-activated protein kinase 8)	1	-0.469
128	MAPK8 (mitogen-activated protein kinase 8)	2	1.41
129	MAPK8 (mitogen-activated protein kinase 8)	3	-0.14
130	MAPK8 (mitogen-activated protein kinase 8)	4	-0.296
131	MAPK8 (mitogen-activated protein kinase 8)	5	-1.36
132	MAPK8 (mitogen-activated protein kinase 8)	6	0.532
133	TLR8 (toll like receptor 8)	1	-2.31 (active)
134	TLR8 (toll like receptor 8)	2	-2.78 (active)
135	TLR8 (toll like receptor 8)	3	-3.75 (active)
136	TLR8 (toll like receptor 8)	4	-2.98 (active)
137	TLR8 (toll like receptor 8)	5	-2.62 (active)
138	TLR8 (toll like receptor 8)	6	-2.69 (active)
139	IL6 (interleukin 6)	1	0.977
140	IL6 (interleukin 6)	2	-1.09
141	IL6 (interleukin 6)	3	-0.682
142	IL6 (interleukin 6)	4	-0.636
143	IL6 (interleukin 6)	5	-0.786
144	IL6 (interleukin 6)	6	-0.0653
